Reference: the supplement of paper PMC7238544
Counter-ions that a name gives are not always drawn. ± gives the standard deviation of the averaged measurements. Some of the results follow. The data scatter; read single values as rough. Where a SMILES comes first, the peptide text is derived from it.

Legend:
[1] = tested on: hAMSC donor 1; experiment: Hoechst total cell count ratio vs vehicle control; higher = more cells (less toxicity)
[2] = tested on: hAMSC donor 2; experiment: as above
[3] = tested on: hAMSC donor 1; experiment: transgenic luciferase activity (RLU/mg protein) fold change vs vehicle control (ratio); higher = more transgene expression
[4] = tested on: hAMSC donor 1; experiment: transfection efficiency (EGFP+ cells / Hoechst count) fold change vs vehicle control (ratio); hAMSC are human adipose-derived mesenchymal stem cells given an EGFP-luciferase plasmid by lipofection; higher = enhanced transfection
[5] = tested on: hAMSC donor 2; experiment: as above
[6] = priming compound concentration 0.2 µM
[7] = priming compound concentration 1.7 µM
[8] = priming compound concentration 13 µM

Structure (SMILES)	Hoechst total cell count ratio [1, 6]	Hoechst total cell count ratio [1, 7]	Hoechst total cell count ratio [1, 8]	Hoechst total cell count ratio [2, 6]	Hoechst total cell count ratio [2, 7]	Hoechst total cell count ratio [2, 8]	transgenic luciferase activity [3, 8]	transfection efficiency [4, 6]	transfection efficiency [4, 7]	transfection efficiency [4, 8]	transfection efficiency [5, 6]	transfection efficiency [5, 7]	transfection efficiency [5, 8]	transgenic luciferase activity [3, 6]	transgenic luciferase activity [3, 7]
Cn1nnc2c(C(N)=O)ncn2c1=O [Temozolomide]	1.33 ± 0.021	1.3 ± 0.11	1.25 ± 0.029	0.958 ± 0.29	0.965 ± 0.055	1.12 ± 0.17	1.71 ± 1.9	1.38 ± 0.19	1.08 ± 0.23	1.01 ± 0.63	1.3 ± 0.19	1.35 ± 0.17	1 ± 0.16		
COCC1=C(C(=O)OC(C)OC(=O)OC(C)C)N2C(=O)[C@@H](NC(=O)/C(=N\OC)c3csc(N)n3)[C@H]2SC1 (stereo partly drawn) [Cefpodoxime proxetil]	1.39 ± 0.18	1.23 ± 0.11	1.25 ± 0.27	1.18 ± 0.51	1.17 ± 0.1	1.17 ± 0.43	1.32 ± 1.3	0.896 ± 0.16	1.29 ± 0.29	0.837 ± 0.19	1.02 ± 0.35	1.46 ± 0.33	0.911 ± 0.12		
CCC1=C(C)CN(C(=O)NCCc2ccc(S(=O)(=O)NC(=O)N[C@H]3CC[C@H](C)CC3)cc2)C1=O [Glimepiride]	1.19 ± 0.12	1.12 ± 0.065	1.03 ± 0.099	1.38 ± 0.17	1.266 ± 0.01	1.35 ± 0.047	1.41 ± 0.32	0.928 ± 0.34	0.834 ± 0.086	1.22 ± 0.092	0.961 ± 0.27	0.988 ± 0.066	0.949 ± 0.22		
Nc1nc(Cl)nc2c1ncn2[C@@H]1O[C@H](CO)[C@@H](O)[C@H]1O [2-Chloroadenosine]	1.15 ± 0.061	1.16 ± 0.037	1.18 ± 0.014	1.39 ± 0.029	1.34 ± 0.039	1.46 ± 0.2	0.739 ± 0.3	0.853 ± 0.056	0.911 ± 0.087	0.86 ± 0.13	0.918 ± 0.063	0.909 ± 0.03	0.774 ± 0.12		
CC(=O)Nc1ccc(CC(=O)O)cc1 [Actarit]	1.04 ± 0.11	1.03 ± 0.2	1.05 ± 0.058	0.996 ± 0.14	1.18 ± 0.034	1.14 ± 0.077		1 ± 0.35	1.31 ± 0.3	1.17 ± 0.22	1.09 ± 0.11	0.864 ± 0.076	1.09 ± 0.24	1.22 ± 0.77	
OC(CCN1CCCC1)(c1ccccc1)C1CCCCC1 (stereo not drawn) [Procyclidine hydrochloride]	1.04 ± 0.036	1.03 ± 0.2	1.05 ± 0.034	1.08 ± 0.074	1.24 ± 0.11	1.28 ± 0.21		1.09 ± 0.2	1.02 ± 0.21	0.82 ± 0.29	1.09 ± 0.081	0.873 ± 0.18	0.953 ± 0.19	0.7 ± 0.14	
NCC(O)c1ccc(O)c(O)c1 (racemic) [(+/-)-Norepinephrine hydrochloride]	1.33 ± 0.3	1.11 ± 0.18	1.19 ± 0.066	0.785 ± 0.088	0.968 ± 0.24	1.11 ± 0.073		1.08 ± 0.18	0.867 ± 0.09	1.03 ± 0.22	1.36 ± 0.23	1.35 ± 0.42	1.27 ± 0.3		0.737 ± 0.22
O=C(c1ccc(F)cc1)C1CCN(CCn2c(=S)[nH]c3ccccc3c2=O)CC1 [Altanserin hydrochloride]	1.27 ± 0.12	1.38 ± 0.079	1.14 ± 0.11	1.03 ± 0.034	1.22 ± 0.18	1.15 ± 0.18		1.11 ± 0.13	1.13 ± 0.25	1.23 ± 0.63	1.2 ± 0.2	0.987 ± 0.31	1.1 ± 0.12	0.996 ± 0.29	
COC(=O)C1=C(C)NC(C)=C(C(=O)OCC(C)C)C1c1ccccc1[N+](=O)[O-] (stereo not drawn) [Nisoldipine]	1.27 ± 0.21	1.25 ± 0.1	1.22 ± 0.082	1.59 ± 0.05	1.23 ± 0.021	1.41 ± 0.067	0.779 ± 0.33	0.949 ± 0.17	0.989 ± 0.14	0.906 ± 0.027	0.448 ± 0.019	1.05 ± 0.12	1.22 ± 0.12		
CC(C)OC(=O)CCC/C=C\C[C@@H]1[C@@H](CC[C@@H](O)CCc2ccccc2)[C@H](O)C[C@@H]1O [Latanoprost]	1.33 ± 0.051	1.18 ± 0.042	1.16 ± 0.092	1.04 ± 0.16	1.24 ± 0.083	1.57 ± 0.13	0.538 ± 0.25	0.622 ± 0.14	0.679 ± 0.046	0.382 ± 0.086	1.36 ± 0.27	1.05 ± 0.13	0.628 ± 0.1		
CN1CCc2cc(Cl)c(O)cc2[C@@H](c2ccccc2)C1	1.29 ± 0.31	1.03 ± 0.094	1.21 ± 0.06	1.21 ± 0.042	1.22 ± 0.028	1.21 ± 0.11	1.19 ± 0.84	1.13 ± 0.26	1.24 ± 0.12	1.32 ± 0.31	1.05 ± 0.064	0.992 ± 0.11	1.22 ± 0.13		
CC[C@H]1OC(=O)[C@H](C)[C@@H](O[C@H]2C[C@@](C)(OC)[C@@H](O)[C@H](C)O2)[C@H](C)[C@@H](O[C@@H]2O[C@H](C)C[C@H](N(C)C)[C@H]2O)[C@](C)(OC)C[C@@H](C)C(=O)[C@H](C)[C@@H](O)[C@]1(C)O [Clarithromycin]	1.26 ± 0.086	1.27 ± 0.12	1.18 ± 0.13	1.25 ± 0.2	0.874 ± 0.052	0.968 ± 0.2		0.998 ± 0.35	1.02 ± 0.27	1.14 ± 0.053	0.829 ± 0.21	0.94 ± 0.069	0.865 ± 0.15	0.965 ± 0.38	
CCCc1nc(C)c2c(=O)nc(-c3cc(S(=O)(=O)N4CCN(CC)CC4)ccc3OCC)[nH]n12 [Vardenafil citrate]	1.25 ± 0.34	1.28 ± 0.23	1.1 ± 0.083	1.11 ± 0.1	1.2 ± 0.053	1.15 ± 0.015	0.556 ± 0.12	1.23 ± 0.18	1.11 ± 0.19	1.28 ± 0.24	1.01 ± 0.26	0.947 ± 0.046	1.12 ± 0.24		
O=C1CC[C@@H](C(=O)N2CSC[C@H]2C(=O)O)N1 [Pidotimod] (HELM PEPTIDE1{[Glp].[O=C(O)[C@@H]1CSCN1[*:1]]}$$$$V2.0)	1.31 ± 0.051	1.44 ± 0.12	1.32 ± 0.06	0.817 ± 0.033	0.949 ± 0.053	1.05 ± 0.2		0.729 ± 0.037	0.872 ± 0.2	1 ± 0.11	1.01 ± 0.14	1.11 ± 0.16	1.19 ± 0.16	0.746 ± 0.13	
COc1ccc2[nH]c([S+]([O-])Cc3ncc(C)c(OC)c3C)nc2c1 (stereo not drawn) [Omeprazole]	1.13 ± 0.24	1.23 ± 0.13	1.21 ± 0.015	0.993 ± 0.22	1.13 ± 0.028	1.13 ± 0.083		1.06 ± 0.25	1.06 ± 0.22	0.888 ± 0.33	1 ± 0.24	1.01 ± 0.13	0.885 ± 0.11	0.375 ± 0.27	
CO[C@@H]1[C@@H](O[C@@H]2O[C@H](C)[C@@H](O[C@H]3C[C@@](C)(O)[C@@H](OC(=O)CC(C)C)[C@H](C)O3)[C@H](N(C)C)[C@H]2O)[C@@H](CC=O)C[C@@H](C)[C@@H](O)/C=C/C=C/C[C@@H](C)OC(=O)C[C@H]1O [Kitasamycin]	1.43 ± 0.16	1.23 ± 0.14	1.07 ± 0.037	0.85 ± 0.13	1 ± 0.096	1.02 ± 0.28		1.1 ± 0.049	0.791 ± 0.11	1.34 ± 0.38	1.01 ± 0.094	1.23 ± 0.12	1.13 ± 0.34		0.748 ± 0.75

As a working copy, part of the list above:
Structure (SMILES)	Hoechst total cell count ratio [1, 6]	Hoechst total cell count ratio [1, 7]	Hoechst total cell count ratio [1, 8]	Hoechst total cell count ratio [2, 6]	Hoechst total cell count ratio [2, 7]	Hoechst total cell count ratio [2, 8]	transgenic luciferase activity [3, 8]	transfection efficiency [4, 6]	transfection efficiency [4, 7]	transfection efficiency [4, 8]	transfection efficiency [5, 6]	transfection efficiency [5, 7]	transfection efficiency [5, 8]	transgenic luciferase activity [3, 6]	transgenic luciferase activity [3, 7]
Nc1nc(Cl)nc2c1ncn2[C@@H]1O[C@H](CO)[C@@H](O)[C@H]1O [2-Chloroadenosine]	1.15 ± 0.061	1.16 ± 0.037	1.18 ± 0.014	1.39 ± 0.029	1.34 ± 0.039	1.46 ± 0.2	0.739 ± 0.3	0.853 ± 0.056	0.911 ± 0.087	0.86 ± 0.13	0.918 ± 0.063	0.909 ± 0.03	0.774 ± 0.12		
CC(=O)Nc1ccc(CC(=O)O)cc1 [Actarit]	1.04 ± 0.11	1.03 ± 0.2	1.05 ± 0.058	0.996 ± 0.14	1.18 ± 0.034	1.14 ± 0.077		1 ± 0.35	1.31 ± 0.3	1.17 ± 0.22	1.09 ± 0.11	0.864 ± 0.076	1.09 ± 0.24	1.22 ± 0.77	
